For at least one entry, the source does not settle the construct or the ends of the probe. Where a protein sequence is shown, tags need not be part of it.

The series has as its target T1, DinG helicase (Escherichia coli) (UniProt P27296).
T1 sequence (looked up, limits assumed): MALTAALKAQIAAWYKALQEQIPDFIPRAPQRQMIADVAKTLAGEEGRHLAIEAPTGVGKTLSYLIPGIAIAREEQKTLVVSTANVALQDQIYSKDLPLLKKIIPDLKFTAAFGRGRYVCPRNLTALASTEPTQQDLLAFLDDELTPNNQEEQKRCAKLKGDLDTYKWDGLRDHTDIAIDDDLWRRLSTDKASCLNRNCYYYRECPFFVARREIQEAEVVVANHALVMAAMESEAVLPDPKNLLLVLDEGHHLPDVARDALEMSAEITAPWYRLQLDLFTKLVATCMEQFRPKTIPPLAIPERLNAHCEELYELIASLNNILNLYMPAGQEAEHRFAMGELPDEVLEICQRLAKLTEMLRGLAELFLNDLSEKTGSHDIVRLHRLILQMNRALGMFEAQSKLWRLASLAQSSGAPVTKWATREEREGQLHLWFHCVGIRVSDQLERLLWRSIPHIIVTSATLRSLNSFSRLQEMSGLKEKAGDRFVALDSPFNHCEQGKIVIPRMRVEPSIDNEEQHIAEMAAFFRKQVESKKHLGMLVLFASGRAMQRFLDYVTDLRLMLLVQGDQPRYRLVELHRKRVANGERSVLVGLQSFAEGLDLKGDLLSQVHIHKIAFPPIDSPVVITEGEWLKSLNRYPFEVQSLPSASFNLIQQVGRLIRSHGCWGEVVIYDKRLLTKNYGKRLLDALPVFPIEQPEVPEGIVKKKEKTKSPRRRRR
The experiment in a line: SPR. The conditions noted are these: SPR single-cycle kinetics, 25 C, DinG immobilized, DNA 0.062-1 uM, DNA prepared in 10 mM potassium phosphate, 50 mM KCl, pH 7.5, recombinant protein, protein details: His-tag, folded or branched DNA.

With AGGGAGGGCGCTGGGAGGAGGG [c-KIT1], the Kd (as a rule, the free concentration of one partner at which half of the binding sites on the other are occupied at equilibrium, for simple one-to-one binding) stood at 73.9 nM (BRACO-19), 266 nM (PhenDC3) and 98.3 nM (Pyridostatin (PDS)).
